In PMC11254415:
No constants are given. Whether binding was seen depends on the method and setting. Binding seen in cells or lysates may run through a third protein. Some binding calls cover weakened binding; strength is not graded here. Tags and fused reporters may be left off the sequences shown.

Amino acid sequences for entries named in this document (tags omitted). Residues count along the entry.
UniProt P06756, residues 31-1048: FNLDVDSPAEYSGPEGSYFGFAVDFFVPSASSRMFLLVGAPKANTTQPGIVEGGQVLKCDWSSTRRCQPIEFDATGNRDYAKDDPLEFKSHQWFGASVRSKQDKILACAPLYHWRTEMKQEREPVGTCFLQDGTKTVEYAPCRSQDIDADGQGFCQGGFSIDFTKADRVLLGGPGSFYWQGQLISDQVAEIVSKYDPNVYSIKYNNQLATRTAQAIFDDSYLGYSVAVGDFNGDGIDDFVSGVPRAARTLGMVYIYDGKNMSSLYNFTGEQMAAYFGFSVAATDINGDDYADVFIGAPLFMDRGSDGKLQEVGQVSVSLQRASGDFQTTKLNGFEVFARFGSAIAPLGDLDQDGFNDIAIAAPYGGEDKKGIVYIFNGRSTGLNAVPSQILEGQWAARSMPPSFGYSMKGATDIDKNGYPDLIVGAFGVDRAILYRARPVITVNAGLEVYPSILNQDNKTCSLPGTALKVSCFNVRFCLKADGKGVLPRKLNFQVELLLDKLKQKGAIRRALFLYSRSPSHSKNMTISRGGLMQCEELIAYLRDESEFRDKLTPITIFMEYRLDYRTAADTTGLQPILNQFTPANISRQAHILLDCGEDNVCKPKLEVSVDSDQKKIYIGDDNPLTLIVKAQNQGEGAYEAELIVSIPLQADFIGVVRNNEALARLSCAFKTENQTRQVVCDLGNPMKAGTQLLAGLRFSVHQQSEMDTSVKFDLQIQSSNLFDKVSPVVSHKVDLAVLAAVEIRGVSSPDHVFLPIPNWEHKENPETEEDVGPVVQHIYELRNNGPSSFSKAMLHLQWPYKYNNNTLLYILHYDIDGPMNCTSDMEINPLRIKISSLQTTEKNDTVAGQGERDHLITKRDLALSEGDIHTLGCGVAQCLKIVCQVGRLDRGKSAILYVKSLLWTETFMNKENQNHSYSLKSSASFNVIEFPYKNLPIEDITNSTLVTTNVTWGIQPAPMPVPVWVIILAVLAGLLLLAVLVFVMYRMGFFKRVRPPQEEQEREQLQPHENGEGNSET

Molecular target: T1, Flag-tagged ANGPTL4 (ANGPTL4-Flag) (human) (UniProt Q9BY76)
T1 sequence: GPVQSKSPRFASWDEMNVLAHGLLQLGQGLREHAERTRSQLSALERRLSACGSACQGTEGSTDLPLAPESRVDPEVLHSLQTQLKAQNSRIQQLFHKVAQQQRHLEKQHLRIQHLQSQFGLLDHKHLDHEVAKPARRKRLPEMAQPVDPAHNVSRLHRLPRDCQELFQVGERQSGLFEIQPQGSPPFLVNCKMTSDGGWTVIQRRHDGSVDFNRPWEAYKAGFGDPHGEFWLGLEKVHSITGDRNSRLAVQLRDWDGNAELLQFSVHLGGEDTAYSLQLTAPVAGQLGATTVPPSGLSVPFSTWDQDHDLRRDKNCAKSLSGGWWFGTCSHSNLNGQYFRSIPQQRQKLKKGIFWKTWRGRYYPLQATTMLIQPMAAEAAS
Assay: co-IP; lysate of AGS cells expressing ANGPTL4-Flag, IP with anti-Flag Abs or control IgG at 4 °C overnight, protein A/G magnetic beads, Western blot for ITGAV

binding: binds
Substance: integrin αV (ITGAV) (from UniProt P06756 31-1048) (receptor)
